These results are taken from paper PMC10462713.

Amino acid sequences for entries named in this document (tags omitted). A change or cut given only in a name is not applied to a line headed by its entry.
UniProt P49327: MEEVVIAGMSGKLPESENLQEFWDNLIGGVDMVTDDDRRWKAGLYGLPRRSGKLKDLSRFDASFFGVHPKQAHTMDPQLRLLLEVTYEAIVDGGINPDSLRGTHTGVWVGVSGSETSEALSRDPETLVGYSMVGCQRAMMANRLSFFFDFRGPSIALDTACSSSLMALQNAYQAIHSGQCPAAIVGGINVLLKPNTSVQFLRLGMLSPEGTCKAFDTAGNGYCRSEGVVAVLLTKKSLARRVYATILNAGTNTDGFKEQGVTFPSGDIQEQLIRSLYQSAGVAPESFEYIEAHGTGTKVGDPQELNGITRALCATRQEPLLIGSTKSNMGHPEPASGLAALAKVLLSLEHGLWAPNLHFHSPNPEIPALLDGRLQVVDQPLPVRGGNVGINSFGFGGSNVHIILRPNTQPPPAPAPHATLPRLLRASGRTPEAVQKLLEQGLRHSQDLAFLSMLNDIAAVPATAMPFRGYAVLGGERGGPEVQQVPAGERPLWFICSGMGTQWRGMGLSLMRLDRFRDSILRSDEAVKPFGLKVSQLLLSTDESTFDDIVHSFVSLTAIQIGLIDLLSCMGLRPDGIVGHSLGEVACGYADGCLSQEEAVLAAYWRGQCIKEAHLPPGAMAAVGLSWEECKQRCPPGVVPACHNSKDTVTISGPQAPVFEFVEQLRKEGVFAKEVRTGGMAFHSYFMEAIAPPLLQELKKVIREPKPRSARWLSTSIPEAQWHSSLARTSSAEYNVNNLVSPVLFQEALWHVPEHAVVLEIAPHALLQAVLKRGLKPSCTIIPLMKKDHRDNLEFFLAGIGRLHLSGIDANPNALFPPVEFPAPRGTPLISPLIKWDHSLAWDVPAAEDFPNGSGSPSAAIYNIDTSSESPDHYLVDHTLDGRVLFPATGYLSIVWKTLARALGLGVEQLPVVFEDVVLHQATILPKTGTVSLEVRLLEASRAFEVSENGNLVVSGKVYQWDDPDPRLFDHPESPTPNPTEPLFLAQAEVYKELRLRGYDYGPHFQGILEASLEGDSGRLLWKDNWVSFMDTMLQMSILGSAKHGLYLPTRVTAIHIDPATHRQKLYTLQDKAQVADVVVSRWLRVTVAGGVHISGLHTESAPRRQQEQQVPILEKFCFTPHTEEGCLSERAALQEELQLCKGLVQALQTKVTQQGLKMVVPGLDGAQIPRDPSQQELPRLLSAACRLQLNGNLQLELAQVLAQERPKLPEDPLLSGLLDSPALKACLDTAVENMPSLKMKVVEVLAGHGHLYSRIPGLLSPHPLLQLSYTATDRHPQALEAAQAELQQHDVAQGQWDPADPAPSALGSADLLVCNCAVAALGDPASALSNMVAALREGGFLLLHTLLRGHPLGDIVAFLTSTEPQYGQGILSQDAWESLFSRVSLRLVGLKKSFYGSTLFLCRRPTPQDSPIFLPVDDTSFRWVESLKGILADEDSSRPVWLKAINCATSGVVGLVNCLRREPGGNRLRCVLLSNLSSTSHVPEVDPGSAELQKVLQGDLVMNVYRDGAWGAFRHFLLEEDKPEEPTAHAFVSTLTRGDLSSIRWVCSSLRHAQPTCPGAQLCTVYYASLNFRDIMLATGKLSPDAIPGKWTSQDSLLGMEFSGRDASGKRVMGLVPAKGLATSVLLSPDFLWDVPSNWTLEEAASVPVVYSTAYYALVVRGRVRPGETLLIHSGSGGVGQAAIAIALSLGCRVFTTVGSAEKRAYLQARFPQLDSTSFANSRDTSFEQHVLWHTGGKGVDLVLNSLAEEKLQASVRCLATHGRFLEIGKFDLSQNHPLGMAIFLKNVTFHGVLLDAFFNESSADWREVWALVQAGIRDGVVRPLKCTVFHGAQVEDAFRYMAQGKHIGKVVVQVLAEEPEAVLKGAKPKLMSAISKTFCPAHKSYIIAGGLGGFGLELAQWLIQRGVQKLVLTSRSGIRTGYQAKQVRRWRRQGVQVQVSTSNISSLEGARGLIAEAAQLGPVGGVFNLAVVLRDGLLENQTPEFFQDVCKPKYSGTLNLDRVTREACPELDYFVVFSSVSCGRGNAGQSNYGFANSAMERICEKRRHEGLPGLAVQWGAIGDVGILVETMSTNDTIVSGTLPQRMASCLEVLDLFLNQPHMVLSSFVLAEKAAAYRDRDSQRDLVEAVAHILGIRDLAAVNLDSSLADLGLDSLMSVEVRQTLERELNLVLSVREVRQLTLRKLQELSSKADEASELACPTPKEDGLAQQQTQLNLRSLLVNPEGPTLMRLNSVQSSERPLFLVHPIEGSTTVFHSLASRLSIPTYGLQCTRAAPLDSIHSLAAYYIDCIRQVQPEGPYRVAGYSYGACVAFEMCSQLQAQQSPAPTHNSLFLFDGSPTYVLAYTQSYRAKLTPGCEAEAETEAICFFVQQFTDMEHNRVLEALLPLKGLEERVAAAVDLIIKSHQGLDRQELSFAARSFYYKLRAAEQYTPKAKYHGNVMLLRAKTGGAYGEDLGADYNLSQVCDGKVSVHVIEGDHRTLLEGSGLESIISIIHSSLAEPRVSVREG
UniProt P63279: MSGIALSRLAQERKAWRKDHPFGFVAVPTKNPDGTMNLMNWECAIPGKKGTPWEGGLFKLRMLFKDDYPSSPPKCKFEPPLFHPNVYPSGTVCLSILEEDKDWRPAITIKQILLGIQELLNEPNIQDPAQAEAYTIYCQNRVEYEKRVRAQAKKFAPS
UniProt O15379: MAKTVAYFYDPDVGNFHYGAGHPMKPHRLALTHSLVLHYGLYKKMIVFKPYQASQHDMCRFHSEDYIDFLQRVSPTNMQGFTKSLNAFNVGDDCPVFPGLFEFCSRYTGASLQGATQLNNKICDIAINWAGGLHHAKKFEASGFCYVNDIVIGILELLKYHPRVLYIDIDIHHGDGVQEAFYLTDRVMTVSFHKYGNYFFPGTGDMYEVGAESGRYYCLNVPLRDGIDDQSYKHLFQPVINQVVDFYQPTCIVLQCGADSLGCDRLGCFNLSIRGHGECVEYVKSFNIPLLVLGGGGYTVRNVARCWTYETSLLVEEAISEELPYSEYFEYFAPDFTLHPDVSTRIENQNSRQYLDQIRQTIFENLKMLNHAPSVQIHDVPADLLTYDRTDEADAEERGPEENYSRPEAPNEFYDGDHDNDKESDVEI
UniProt Q00987: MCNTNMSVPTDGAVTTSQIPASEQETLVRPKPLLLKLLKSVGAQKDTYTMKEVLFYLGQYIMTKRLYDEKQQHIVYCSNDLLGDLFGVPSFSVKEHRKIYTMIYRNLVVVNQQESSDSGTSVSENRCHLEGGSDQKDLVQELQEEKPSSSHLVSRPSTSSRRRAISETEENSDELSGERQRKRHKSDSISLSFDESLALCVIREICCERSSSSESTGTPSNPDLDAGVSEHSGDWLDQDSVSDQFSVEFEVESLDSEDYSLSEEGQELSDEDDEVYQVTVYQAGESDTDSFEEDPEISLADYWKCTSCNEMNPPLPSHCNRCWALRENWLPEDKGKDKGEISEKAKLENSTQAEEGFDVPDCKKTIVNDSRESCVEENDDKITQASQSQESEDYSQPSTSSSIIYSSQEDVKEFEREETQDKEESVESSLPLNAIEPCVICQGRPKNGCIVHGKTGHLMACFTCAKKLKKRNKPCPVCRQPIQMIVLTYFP

In assay [1] the target is Flag-FASN (fatty acid synthase, wild type) (human) (UniProt P49327). The assay is described as follows: co-IP; chondrocytes transfected with plasmids for 48 h; IP lysis buffer (20 mM Tris-HCl, 150 mM NaCl, 1 mM EDTA, 1% Nonidet P40); Sepharose beads and specific IP antibodies overnight at 4 °C; western blot; in some panels with CircRREB1 knockdown or overexpression, RanBP2 knockdown, MG-132 and TSA. In general terms: Immunoblotting shows a protein as a band on a membrane.

Assay [2] addresses Flag-FASN-K673R (human) (UniProt P49327). The description is as above.

Results are given in words; binding and its absence hold for the method and conditions named. In cells and extracts the contact can be indirect. Some entries that bind do so weakly or less than the wild type.

As to “E3 SUMO-protein ligase RanBP2 (from UniProt P49792 1-3224) (enzyme)”, in assay [1], the binding entry is on record as “binds”.

As to “ubiquitin-conjugating enzyme 9 (UBC9) (from UniProt P63279 1-158)”, the binding result in assay [1] is on record as “binds”.

Consider “HDAC3 (from UniProt O15379 1-428) (enzyme)”, for which the binding result in assay [2] and in assay [1] was “binds” throughout.

With “Myc-MDM2 (from UniProt Q00987 1-491) (enzyme)”, in assay [1], the binding entry is “binds”.
